Among the data in article PMC4198130 are binding values, retold here.

Sequences of proteins named here, by UniProt entry; tags and fusion partners are left off. Residues count along the entry.
UniProt Q12929, residues 531-590: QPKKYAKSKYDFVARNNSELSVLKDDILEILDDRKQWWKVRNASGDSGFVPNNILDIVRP

No constants are given. Whether binding was seen depends on the method and setting. In cells and extracts the contact can be indirect.

For this test, the target named is GST fusion of the SH3 domain of EPS8 (Panomics) (human) (UniProt Q12929). Description: pull-down; GST fusions of SH3 or WW domains on glutathione sepharose beads, incubated with detergent-solubilized (2% TX-100) rat brain extract, RT 60 min; bound VGLUT1 by immunoblot, band intensity normalised to lysate; only the target purified.

B1: VGLUT1 from rat brain extract (protein, UniProt Q62634 1-560)
chain: MEFRQEEFRKLAGRALGRLHRLLEKRQEGAETLELSADGRPVTTHTRDPPVVDCTCFGLPRRYIIAIMSGLGFCISFGIRCNLGVAIVSMVNNSTTHRGGHVVVQKAQFNWDPETVGLIHGSFFWGYIVTQIPGGFICQKFAANRVFGFAIVATSTLNMLIPSAARVHYGCVIFVRILQGLVEGVTYPACHGIWSKWAPPLERSRLATTAFCGSYAGAVVAMPLAGVLVQYSGWSSVFYVYGSFGIFWYLFWLLVSYESPALHPSISEEERKYIEDAIGESAKLMNPVTKFNTPWRRFFTSMPVYAIIVANFCRSWTFYLLLISQPAYFEEVFGFEISKVGLVSALPHLVMTIIVPIGGQIADFLRSRHIMSTTNVRKLMNCGGFGMEATLLLVVGYSHSKGVAISFLVLAVGFSGFAISGFNVNHLDIAPRYASILMGISNGVGTLSGMVCPIIVGAMTKHKTREEWQYVFLIASLVHYGGVIFYGVFASGEKQPWAEPEEMSEEKCGFVGHDQLAGSDESEMEDEVEPPGAPPAPPPSYGATHSTVQPPRPPPPVRDY
Regarding B1, the binding entry is recorded as “no binding”.
